We go through 1 substance from paper PMC7476715.

Protein sequences, listed by entry. Tags and fused reporters are not part of them.
UniProt P11881: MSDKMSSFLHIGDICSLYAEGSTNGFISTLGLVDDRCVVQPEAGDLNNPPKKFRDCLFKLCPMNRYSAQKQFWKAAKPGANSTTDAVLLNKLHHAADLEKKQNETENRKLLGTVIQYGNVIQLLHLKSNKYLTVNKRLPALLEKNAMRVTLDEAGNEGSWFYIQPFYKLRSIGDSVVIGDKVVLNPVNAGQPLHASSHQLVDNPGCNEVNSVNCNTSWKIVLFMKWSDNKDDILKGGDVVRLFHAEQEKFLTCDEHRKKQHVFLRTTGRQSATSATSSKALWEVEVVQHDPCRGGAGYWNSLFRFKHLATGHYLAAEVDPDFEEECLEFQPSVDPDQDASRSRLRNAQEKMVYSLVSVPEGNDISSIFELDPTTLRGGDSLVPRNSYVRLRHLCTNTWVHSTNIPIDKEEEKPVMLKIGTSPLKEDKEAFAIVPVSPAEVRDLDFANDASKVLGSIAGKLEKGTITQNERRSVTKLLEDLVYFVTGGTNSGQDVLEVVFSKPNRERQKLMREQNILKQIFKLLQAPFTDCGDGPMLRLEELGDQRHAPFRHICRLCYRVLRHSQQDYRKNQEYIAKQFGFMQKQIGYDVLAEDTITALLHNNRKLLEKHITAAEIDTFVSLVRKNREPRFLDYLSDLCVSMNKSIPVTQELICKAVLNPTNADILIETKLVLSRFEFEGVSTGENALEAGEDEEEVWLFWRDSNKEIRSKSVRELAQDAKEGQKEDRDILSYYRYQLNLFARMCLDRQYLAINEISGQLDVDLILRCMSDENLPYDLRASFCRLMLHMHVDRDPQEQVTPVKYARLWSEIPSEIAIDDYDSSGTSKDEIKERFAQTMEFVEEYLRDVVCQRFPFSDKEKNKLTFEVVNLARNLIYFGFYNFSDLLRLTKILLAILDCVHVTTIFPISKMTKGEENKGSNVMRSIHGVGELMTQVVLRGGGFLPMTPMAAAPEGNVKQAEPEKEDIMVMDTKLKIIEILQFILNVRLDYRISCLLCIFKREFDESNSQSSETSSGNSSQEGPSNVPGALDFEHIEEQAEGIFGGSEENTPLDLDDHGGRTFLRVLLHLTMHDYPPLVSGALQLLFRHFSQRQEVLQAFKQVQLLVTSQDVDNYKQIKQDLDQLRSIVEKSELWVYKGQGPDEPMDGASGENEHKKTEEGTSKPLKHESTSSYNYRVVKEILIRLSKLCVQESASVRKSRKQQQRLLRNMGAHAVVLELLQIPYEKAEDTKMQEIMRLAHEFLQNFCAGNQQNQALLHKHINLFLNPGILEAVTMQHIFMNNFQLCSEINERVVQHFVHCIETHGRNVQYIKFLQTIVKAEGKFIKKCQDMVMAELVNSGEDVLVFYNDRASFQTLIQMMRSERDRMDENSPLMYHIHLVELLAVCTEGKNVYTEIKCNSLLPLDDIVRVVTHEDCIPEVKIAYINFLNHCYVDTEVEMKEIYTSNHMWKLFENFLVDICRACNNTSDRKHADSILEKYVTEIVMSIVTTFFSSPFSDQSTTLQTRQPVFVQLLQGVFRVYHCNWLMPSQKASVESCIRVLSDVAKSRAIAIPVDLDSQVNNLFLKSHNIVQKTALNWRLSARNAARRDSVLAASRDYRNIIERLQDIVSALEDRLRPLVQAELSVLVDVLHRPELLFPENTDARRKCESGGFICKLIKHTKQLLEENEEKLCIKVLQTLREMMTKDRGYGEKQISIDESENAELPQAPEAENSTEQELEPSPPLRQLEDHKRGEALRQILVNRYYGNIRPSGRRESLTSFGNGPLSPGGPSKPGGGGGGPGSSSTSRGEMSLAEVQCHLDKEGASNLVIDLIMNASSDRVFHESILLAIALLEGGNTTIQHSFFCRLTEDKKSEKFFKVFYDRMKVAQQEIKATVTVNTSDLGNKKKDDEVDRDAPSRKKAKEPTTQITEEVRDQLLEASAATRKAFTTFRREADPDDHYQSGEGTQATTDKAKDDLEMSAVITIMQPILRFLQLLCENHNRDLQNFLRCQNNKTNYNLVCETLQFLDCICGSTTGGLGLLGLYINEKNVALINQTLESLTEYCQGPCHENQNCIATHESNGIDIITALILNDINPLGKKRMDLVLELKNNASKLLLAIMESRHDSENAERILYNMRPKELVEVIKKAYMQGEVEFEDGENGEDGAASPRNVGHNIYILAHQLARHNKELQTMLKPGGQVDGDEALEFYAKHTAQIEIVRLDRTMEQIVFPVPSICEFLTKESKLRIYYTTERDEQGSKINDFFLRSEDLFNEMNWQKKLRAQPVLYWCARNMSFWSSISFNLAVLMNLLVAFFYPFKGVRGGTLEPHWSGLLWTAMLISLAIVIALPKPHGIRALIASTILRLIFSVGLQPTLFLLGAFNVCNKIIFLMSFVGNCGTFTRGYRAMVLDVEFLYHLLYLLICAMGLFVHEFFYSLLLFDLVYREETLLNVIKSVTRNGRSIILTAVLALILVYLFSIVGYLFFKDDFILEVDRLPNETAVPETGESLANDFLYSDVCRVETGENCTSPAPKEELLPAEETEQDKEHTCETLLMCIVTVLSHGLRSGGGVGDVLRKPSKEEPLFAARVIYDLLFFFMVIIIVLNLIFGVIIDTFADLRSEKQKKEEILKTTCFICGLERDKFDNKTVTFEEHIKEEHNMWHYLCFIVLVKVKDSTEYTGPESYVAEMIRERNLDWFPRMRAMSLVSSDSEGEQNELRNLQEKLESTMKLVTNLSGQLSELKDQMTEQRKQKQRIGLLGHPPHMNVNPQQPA

The experiment deals with T1, Recombinant, biotinylated Caspr2 extracellular domain (mouse) (UniProt E9QNF7).
T1 sequence (chain, biotin (biotinylated in vivo)): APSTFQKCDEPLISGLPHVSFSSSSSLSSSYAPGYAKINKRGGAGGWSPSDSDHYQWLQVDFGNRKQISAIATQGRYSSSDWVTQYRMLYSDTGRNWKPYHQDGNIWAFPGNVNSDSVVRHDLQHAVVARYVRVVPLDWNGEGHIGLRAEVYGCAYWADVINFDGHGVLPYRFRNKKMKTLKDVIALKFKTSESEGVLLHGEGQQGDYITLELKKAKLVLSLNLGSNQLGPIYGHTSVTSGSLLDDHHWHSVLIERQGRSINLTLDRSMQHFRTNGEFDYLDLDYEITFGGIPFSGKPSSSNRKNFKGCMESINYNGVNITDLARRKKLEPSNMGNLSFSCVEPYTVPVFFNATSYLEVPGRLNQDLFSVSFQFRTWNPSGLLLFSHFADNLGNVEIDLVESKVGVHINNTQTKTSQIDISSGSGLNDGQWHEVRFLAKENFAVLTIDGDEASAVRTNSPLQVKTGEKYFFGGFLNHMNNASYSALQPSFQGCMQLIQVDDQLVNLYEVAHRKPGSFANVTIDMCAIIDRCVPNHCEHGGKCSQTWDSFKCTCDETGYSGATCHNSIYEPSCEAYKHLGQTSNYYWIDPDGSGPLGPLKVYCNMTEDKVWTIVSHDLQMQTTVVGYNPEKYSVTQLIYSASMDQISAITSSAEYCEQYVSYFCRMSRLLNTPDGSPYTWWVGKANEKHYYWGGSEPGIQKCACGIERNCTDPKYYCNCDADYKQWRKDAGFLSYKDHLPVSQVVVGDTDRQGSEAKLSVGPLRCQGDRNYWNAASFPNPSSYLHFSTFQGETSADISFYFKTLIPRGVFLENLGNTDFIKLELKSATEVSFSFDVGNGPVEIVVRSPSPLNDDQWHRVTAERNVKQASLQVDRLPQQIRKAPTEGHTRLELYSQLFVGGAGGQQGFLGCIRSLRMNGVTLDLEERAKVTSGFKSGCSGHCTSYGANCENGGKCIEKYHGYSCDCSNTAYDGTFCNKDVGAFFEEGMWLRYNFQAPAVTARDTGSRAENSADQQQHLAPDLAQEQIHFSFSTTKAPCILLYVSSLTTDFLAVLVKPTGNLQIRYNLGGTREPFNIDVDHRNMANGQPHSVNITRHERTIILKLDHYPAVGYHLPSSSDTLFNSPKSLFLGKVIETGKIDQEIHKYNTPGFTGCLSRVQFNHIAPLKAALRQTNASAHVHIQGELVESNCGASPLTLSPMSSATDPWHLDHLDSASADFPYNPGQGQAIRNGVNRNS
The experiment can be described thus: affinity purification with mass spectrometry; biotinylated Caspr2 ECD on streptavidin-coated magnetic beads, incubated with lysate of P14 WT mouse cerebellar synaptosomes in hypo-osmotic shock buffer (150 mM NaCl, 10 mM Tris, pH 8); four washes; LC-MS/MS; control beads coated with contaminant proteins of the ECD purification; only the target purified.

No constants are given. Whether binding was seen depends on the method and setting. Binding seen in cells or lysates may run through a third protein. A yes stands for co-enrichment or nearness to the bait. Other partners may have been found.

Regarding “type 1 inositol 1,4,5-trisphosphate receptor (IP3R1), endogenous in mouse cerebellar synaptosomes (from UniProt P11881 1-2749)”, the binding entry was “binds”.
